Structures are written as SMILES. The list shows a part of the results. These are further read-outs of the screen, such as a control signal, another cell line or another target. No call is given for them. Compounds called inactive in the main read-out are mostly missing here. Potencies come from curve fits of mixed quality, noted in brackets.

This assay in a line: qHTS Assay for Lipid Storage Modulators in Drosophila S3 Cells.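 As to cell number change: cells counted by Cell Tracker Red CMTPX staining in the red channel.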 To be noted: BODIPY lipid droplet fluorescence, 18-24 h; for cell number change: measured here: cell count max response, cells fed with added oleic acid. The procedure, abridged: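 Drosophila S3 cells got compounds at several concentrations plus oleic acid (400 uM solution). Laser-scanning cytometry with 488 nm excitation read lipid droplets at 500-530 nm and cells at 575-640 nm. Percent activity was relative to 20 uM Triacsin C.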
For orientation: qHTS replaces the single test concentration by a dilution series.

Setting [1] is: measured here: lipid fluorescence (Fed channel) AC50, cells fed with added oleic acid.
[2] abbreviates: measured here: cell number channel AC50, cells fed with added oleic acid.

On to `COc1cc(/C=C/c2cc(C(=O)O)c3ccccc3n2)cc(OC)c1O`, for which the cell number change is 140%.
Consider `CCOc1ccccc1OCC(=O)Nc1cccc(S(=O)(=O)N2CCCCCC2)c1`, for which the cell number change was -13%.
As for `CS(=O)(=O)c1ccc(NCCc2ccc(S(N)(=O)=O)cc2)c([N+](=O)[O-])c1`, the cell number change was -9.24%. Further, the AC50 under setting [1] was 6.51 µM [rising, single point].
Consider `CCC(C)OC(=O)C(C)Oc1ccc(-c2ccccc2)cc1` (stereo unspecified), for which the cell number change is -18.6%. In addition, under setting [2], the AC50 is 0.116 µM [falling, full curve]. The AC50 under setting [1] is 23.1 µM [falling, partial curve, poor fit].
For the compound `c1ccc(Cc2nn3c(COc4ccccc4)nnc3s2)cc1`, the cell number change is 87.1%.
Turning to `O=C(c1ccc(-c2nnc(-c3ccccc3)o2)cc1)N1CCCCCC1`, the cell number change is 18%. The AC50 under setting [1] was 32.6 µM [rising, partial curve].
In the case of `Cc1ccc(C)c(/C=N/Nc2ccccn2)c1`, the AC50 under setting [1] was 0.116 µM [rising, full curve, poor fit].
On to `CCCCCn1c(SCC(=O)OCC)nc2cc(C(=O)NCc3ccco3)ccc2c1=O`, for which the cell number change was -22.8%. The AC50 under setting [1] is 4.61 µM [falling, full curve, poor fit].
`CCc1nnc(NC(=O)CCC(=O)N2CCN(C3CCCCC3)CC2)s1`: the cell number change is -0.506%.
Turning to `Cc1nn(-c2ccccc2)c(C)c1/C=N/N1CCN(c2ccccn2)CC1`, the cell number change is -20.4%. For the same compound, the concentration at half-maximal activity (AC50) under setting [2] is 0.731 µM [rising, single point]. Besides, under setting [1], the AC50 is 0.731 µM [rising, single point].
Take `CCNC(=S)N=Nc1c(O)[nH]c2ccc(C(C)C)cc12`: the cell number change was found to be 11.3%.
Consider `C/C(=N\Nc1ncc(Cl)cc1Cl)c1ccc(S(=O)(=O)NCc2ccco2)cc1`, for which the cell number change was -14.9%. Also, the half-maximal activity concentration (AC50) under setting [1] was 20.6 µM [falling, single point].
Regarding `O=C(NC(Cc1ccc(F)cc1)C(=O)O)c1ccccc1` (stereo unspecified), the cell number change is -13.6%.
For the compound `CCN(CC)S(=O)(=O)c1ccc(C)c(C(=O)Oc2cccc(-c3cnc4ccccc4n3)c2)c1`, the cell number change was found to be 0.67%. Further, the AC50 under setting [1] is 29.1 µM [rising, single point].
For the compound `N#Cc1cccc(N=Cc2c(O)ccc3ccccc23)c1`, the cell number change was -2.41%. The AC50 under setting [1] was 29.1 µM [rising, single point].
In the case of `CN(Cc1ccccc1)C(=O)CCS(=O)(=O)c1ccc2c(c1)n(C)c(=O)c(=O)n2C`, the cell number change stood at 31.8%. Under setting [2], the AC50 is 0.82 µM [rising, full curve, poor fit]. Further, the AC50 under setting [1] is 0.651 µM [rising, full curve, poor fit].
With `Cc1ccc(NC(=O)C2CCCN2S(=O)(=O)c2cccc3cccnc23)cc1F` (stereo unspecified), the cell number change was -0.954%. Moreover, the half-maximal activity concentration (AC50) under setting [1] is 29.1 µM [rising, single point].
As to `COC1=C(N2CCOCC2)C(=O)c2ccccc2C1=O`, the cell number change was -38.7%. Further, the concentration at half-maximal activity (AC50) under setting [2] was 29.1 µM [falling, single point].
In the case of `Cc1ccc(Sc2nc(-c3ccccc3)ccc2C#N)cc1`, the cell number change is -20.4%. Under setting [2], the half-maximal activity concentration (AC50) is 0.00517 µM [rising, full curve, poor fit].
Turning to `CO/N=C\C(=N\Nc1ccc(OC)cc1)C(=O)c1ccccc1`, the cell number change was 250%. For the same compound, the half-maximal activity concentration (AC50) under setting [2] is 23.1 µM [rising, partial curve]. Besides, the half-maximal activity concentration (AC50) under setting [1] is 4.11 µM [rising, partial curve].
For the compound `COc1ccccc1C(=O)NN1C(=O)C2C3C=CC(O3)C2C1=O` (stereo unspecified), the cell number change was -18.5%. The AC50 under setting [1] was 23.1 µM [rising, partial curve].
As for `COC(=O)CSc1ncnc2c1cnn2-c1ccc(C)cc1C`, the cell number change was -16.4%. The half-maximal activity concentration (AC50) under setting [2] was 3.26 µM [falling, single point]. For the same compound, the AC50 under setting [1] is 5.8 µM [falling, single point].
On to `COCCSc1nnc(-c2cnccn2)o1`, for which the cell number change was -3.7%. Besides, the half-maximal activity concentration (AC50) under setting [1] is 23.1 µM [falling, single point].
For the compound `O=c1c2ccccc2nc(N/N=C/c2ccc(O)cc2)n1O`, under setting [1], the half-maximal activity concentration (AC50) is 0.731 µM [falling, single point].
The same measure, in the same setting: with `O=C(CNc1cccc(S(=O)(=O)N2CCCC2)c1)Nc1ccc(F)cc1F` the figure was 29.1 µM [falling, single point].
`CCNC(=O)CN(c1ccc(Cl)cc1)S(=O)(=O)c1ccccc1`: the cell number change was found to be 15.1%.
Regarding `CCOc1cc(-c2n[nH]c(=S)n2Cc2ccccc2)ccc1OC(F)F`, the cell number change was -46.2%. Further, the concentration at half-maximal activity (AC50) under setting [2] was 29.1 µM [falling, single point]. In addition, under setting [1], the AC50 is 32.6 µM [falling, partial curve].
On to `COc1ccc(C(C)C)cc1S(=O)(=O)Nc1ccccn1`, for which the cell number change was -7.45%.
Still for that read-out and setting: the figure for `CS(=O)(=O)Nc1ccc(C2=NN(S(C)(=O)=O)C(c3ccc4nccnc4c3)C2)cc1` (stereo unspecified) is 0.455%.
Consider `COc1ccc(CCNC(=O)C2CCN(S(=O)(=O)N3CCC(C)CC3)CC2)cc1OC`, for which the cell number change was -32.1%. Besides, the AC50 under setting [2] was 29.1 µM [falling, single point].
On to `NC(=O)C1CNc2ccccc2O1` (stereo unspecified), for which the cell number change is -0.651%. Further, the half-maximal activity concentration (AC50) under setting [1] was 20.6 µM [falling, single point].
Regarding `FC(F)(F)c1cccc(Sc2nc(-c3ccccc3)nnc2C(F)(F)F)c1`, the cell number change was -109%. Also, under setting [2], the AC50 was 23.1 µM [falling, single point]. Further, under setting [1], the concentration at half-maximal activity (AC50) was 29.1 µM [falling, single point].
As to `CCOC(=O)N1CCN(C(=O)/C=C/c2ccc([N+](=O)[O-])cc2)CC1`, the cell number change is -38.1%. In addition, the concentration at half-maximal activity (AC50) under setting [1] was 0.891 µM [rising, full curve, poor fit].
Take `COc1ccc(-c2nc(=S)c3ccc4ccccc4c3[nH]2)cc1`: the cell number change stood at 24.5%. Under setting [2], the half-maximal activity concentration (AC50) was 6.51 µM [rising, partial curve, poor fit]. For the same compound, the concentration at half-maximal activity (AC50) under setting [1] is 6.51 µM [rising, partial curve].
Take `O=C(O/N=C1\CCCc2ccccc21)c1ccc(F)cc1`: the cell number change turned out to be 66.9%. Besides, under setting [2], the AC50 is 29.1 µM [rising, single point]. Besides, the AC50 under setting [1] was 16.4 µM [rising, single point].
Consider `Cc1nc(CCNC(=O)COc2ccccc2)cs1`, for which the cell number change was determined as 85.3%. Under setting [2], the AC50 was 10.3 µM [rising, partial curve]. The AC50 under setting [1] was 6.51 µM [rising, single point].
For `COCCOC(=O)c1c(C)oc2ccc(OC(=O)c3ccco3)cc12`, the cell number change is -16.1%. For the same compound, the half-maximal activity concentration (AC50) under setting [1] was 4.61 µM [rising, partial curve, poor fit].
Consider `Cc1onc(-c2ccccc2)c1C(=O)NC1CCC(C)CC1` (stereo unspecified), for which the cell number change was -12.2%. The AC50 under setting [1] is 5.8 µM [falling, partial curve].
Turning to `CCOc1cc(NC(=O)C2CC2)c(OCC)cc1NC(=O)c1cccnc1`, the cell number change turned out to be 10.8%. For the same compound, the half-maximal activity concentration (AC50) under setting [1] is 7.31 µM [rising, partial curve].

As a reminder, the AC50 is the midpoint of the concentration-response curve, whichever way the signal moves. Lower therefore signals activity at low concentration.

(Values after PubChem BioAssay AID2685 (National Center for Advancing Translational Sciences (NCATS), 2010).)
